From ChEMBL document CHEMBL3988442, “University of Dundee, Small-Polar-MMV Screening Library” (2021).

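Viability assay of Plasmodium falciparum sporozoites; the read-out is not stated. The concentration is filed as 10 mM, unlikely as a test dose, so the dose is not known. Direction is inferred from retests: higher values go with lower viability. Strong results were mostly tested again. About 34,000 compounds were tested under these conditions; 0.84% (about 280) showed 50% or more at least once.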

Each number is a percent effect as filed.
The record does not define 0% and 100%; most values in the screen are far below 50% and negative numbers occur (in some assays of this library far below -100).
Compounds were drawn at random from those tested, without regard to their results.

O=C(CC1CCCC1)N1CCCC(c2n[nH]c3nccnc23)C1 (stereo not given) read 7.938%.
CCc1nc(CN(C)CC2CCN(CCO)CC2)no1 read -12.12%.
c1ccc(Cc2noc(CN(Cc3cccs3)CC3CCCO3)n2)cc1 (stereo not given) read 9.489%.
c1cc2n(n1)CC(CNCc1ccc(OC3CCCCC3)nc1)CN2 (stereo not given) read 0.8177%.
Cc1cc(C)nc(Nc2cncc(C3CCCN(S(C)(=O)=O)C3)n2)n1 (stereo not given) read 0.3271%.
COc1cc(C(=O)N(C2CC2)C2CC(=O)NC2=O)ccc1C (stereo not given) read 2.056%.
CC(Cn1cccn1)NC(=O)N1CCN(Cc2ccsc2)CC1 (stereo not given) read 18.67%.
c1cnc(-c2nc(CN3CCCC3Cn3cncn3)cs2)nc1 (stereo not given) read -2.793%.
CCN(CC1CCOC1)C(=O)Nc1ccc(OC)nc1 (stereo not given) read 9.179%.
CN(C)C(=O)C1(c2cnccn2)CCCN1C(=O)Cc1ccccc1 (stereo not given) read 10.16%.
COCc1nccc(C2CCCN(Cc3ccc(C#N)cc3F)C2)n1 (stereo not given) read 11.43%.
CCC(=O)N(C)CC(=O)Nc1ccc(Br)cn1 read -2.206%.
CCOc1cc(C(=O)N2CCCC(c3noc(C)n3)C2)ccn1 (stereo not given) read -3.178%.
COCC1CN(S(=O)(=O)C2CC2)Cc2ncn(CC3CC3)c21 (stereo not given) read 2.544%.
CC(NC(=O)CN1C=Nc2ccccc2S1(=O)=O)c1ccccc1 (stereo not given) read -4.114%.
Fc1cnc(N2CCCn3c(nnc3Cn3ccnc3)C2)nc1.O=C(O)C(F)(F)F read -7.282%.
O=C1C(Nc2ccc3nccnc3n2)CCN1c1ccccc1 (stereo not given) read -1.669%.
C/C(=C\c1ccco1)CN(C)C(C)c1ccccn1 (stereo not given) read 16.98%.
Cc1cnn(-c2ccc(C(=O)N3CCCC(n4ccnc4C)C3)cc2)c1 (stereo not given) read 4.247%.
O=C(O)C(F)(F)F.[H][C@]12CC[C@@]3(N=C(C)N(CC4CC4)C3=O)[C@@]1([H])CN(Cc1cccc(Cl)c1)C2 read 9.386%.
Cn1cccc1C(=O)N1CCc2ncc(Cn3cccn3)n2CC1 read -2.706%.
O=C(c1cccnc1)N1Cc2ccccc2OCC1Cn1ccnc1 (stereo not given) read -1.384%.
CN(Cc1ccc(N2CCCCC2)cc1)Cc1noc(C(C)(C)C)n1 read 6.325%.
NC(=O)Cn1cc(NC(=O)NCCN2CCc3ccccc3C2)cn1 read -5.408%.
CCC(=O)N1CCC(c2ncc(C(=O)Nc3ccccc3)c(C)n2)C1 (stereo not given) read 8.085%.
CN(Cc1ccco1)C(=O)CN1CCCCC1Cn1cncn1 (stereo not given) read -1.561%.
CN(CCCc1cc(-c2ccc(F)cc2)n[nH]1)C(=O)CCn1cncn1 read 1.776%.
CC(C)N1CCC2(CC1)C(=O)N(CCN(C)C)c1ccccc12.O=C(O)C(F)(F)F.O=C(O)C(F)(F)F read -6.245%.
Cc1cc(C)nc(Nc2cc(C3CCCN(C)C3)nc(C)n2)n1.O=CO (stereo not given) read -1.303%.
[H][C@@]12CCN(Cc3ccsc3)C[C@]1([H])[C@@H](CN1CCN(C)CC1)OC2 read -1.316%.
Cc1nc(C)n(CC2CCCN(CCCOc3ccccc3)C2)n1 (stereo not given) read -7.399%.
Cc1cc(Nc2nc(C)cc(C)n2)cc(C2CCCN2)n1 (stereo not given) read 9.956%.
COCC1CN(C(=O)Cc2cccc(F)c2)Cc2ccnn2C1.O=C(O)C(F)(F)F (stereo not given) read 22.05%.
O=C(c1cc2c(s1)CCOC2)N1CCCC1Cn1cccn1 (stereo not given) read -3.28%.
CC(C)c1n[nH]c(C2CN(C(=O)c3ncoc3C(C)C)CCO2)n1 (stereo not given) read -6.732%.
Cc1ccc(CCNC(=O)N2CCCC(Cc3nccn3C)C2)cn1 (stereo not given) read -18.26%.
CN(Cc1noc(C2CC2)n1)C1CCN(CC(=O)N2CCOCC2)C1 (stereo not given) read 4.316%.
CC(C)NC(=O)Nc1ccc(CNCc2cccc(C#N)c2)cc1 read 0.3556%.
Cc1ccc(NC2CCN(C(=O)COc3cccnc3)CC2)nn1 read 3.819%.
COC(=O)c1ccc2ccn(CC3CCCN(C)C3)c(=O)c2c1 (stereo not given) read 11.14%.
COc1nn(C)c2c1CCCN(C(=O)c1cscn1)C2 read 17.91%.
COCc1nc2cc(NCc3ccncc3)ccc2o1 read 6.539%.
NC(=O)c1cc(C2CCCN(CCOc3ccc(F)cc3)C2)n[nH]1 (stereo not given) read 0.4884%.
Cn1ncnc1NCc1ccc(F)cc1 read -3.581%.
[H][C@@]12CC[C@H](Oc3ccccc3)[C@]1([H])CN(C(=O)Cn1ccnc1)C2 read 3.199%.
O=C(c1cnc(-c2ccccn2)s1)N1CCCC(n2cccn2)C1 (stereo not given) read -1.848%.
[H][C@@]12CN(CCc3ccccc3)C[C@]1([H])OCCN2c1ncccn1 read 8.418%.
CC(C)N1CCCC(Cc2cncc(Br)c2)CC1 (stereo not given) read 1.932%.
Cc1ccc2c(c1)c(C)cc(=O)n2CC(=O)O read 0.1734%.

The last 4 entries again:

Compound	Percent Effect
O=C(c1cnc(-c2ccccn2)s1)N1CCCC(n2cccn2)C1 (stereo not given)	-1.848
[H][C@@]12CN(CCc3ccccc3)C[C@]1([H])OCCN2c1ncccn1	8.418
CC(C)N1CCCC(Cc2cncc(Br)c2)CC1 (stereo not given)	1.932
Cc1ccc2c(c1)c(C)cc(=O)n2CC(=O)O	0.1734